These are yes or no findings as the source states them, for the method shown. Binding seen in cells or lysates may run through a third protein. Here binding means that the protein was enriched with, or labelled near, the bait; the list need not be complete. For some of these results: No binding means not detected with the bait. For some of these results: Where a sequence is shown, tags or fusion partners need not be part of it.

What all share (assay): affinity purification with mass spectrometry
The target of test [1] is T1, Rpb4-TAP (S. cerevisiae), P20433.
T1 chain: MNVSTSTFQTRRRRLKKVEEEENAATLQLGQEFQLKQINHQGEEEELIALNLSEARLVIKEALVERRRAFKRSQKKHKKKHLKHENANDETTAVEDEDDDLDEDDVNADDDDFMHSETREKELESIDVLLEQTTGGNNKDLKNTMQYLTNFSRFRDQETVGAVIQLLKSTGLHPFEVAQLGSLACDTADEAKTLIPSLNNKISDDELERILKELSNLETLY
The settings on record: remark: other sources report otherwise.

Test [2] concerns the target T2, Rpb4 E19-21Q, TAP-tagged (S. cerevisiae) (UniProt P20433).
T2 sequence: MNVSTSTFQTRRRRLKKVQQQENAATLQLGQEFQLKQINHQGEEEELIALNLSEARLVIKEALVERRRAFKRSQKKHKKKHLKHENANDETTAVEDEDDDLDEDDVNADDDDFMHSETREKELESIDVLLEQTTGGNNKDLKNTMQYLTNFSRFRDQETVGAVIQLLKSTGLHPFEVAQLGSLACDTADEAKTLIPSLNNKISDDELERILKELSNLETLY

Test [3] has as its target T3, Rpb4 E19-22D, TAP-tagged (S. cerevisiae) (UniProt P20433).
T3 sequence: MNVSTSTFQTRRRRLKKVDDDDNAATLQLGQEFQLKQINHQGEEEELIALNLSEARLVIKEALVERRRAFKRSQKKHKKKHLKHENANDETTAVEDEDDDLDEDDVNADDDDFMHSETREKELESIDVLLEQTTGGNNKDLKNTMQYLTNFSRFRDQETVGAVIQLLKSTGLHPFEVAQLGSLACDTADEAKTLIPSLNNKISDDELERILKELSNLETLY

In test [4] the target is T4, Rpb4-TAP (S. cerevisiae) (UniProt P20433).
T4 sequence: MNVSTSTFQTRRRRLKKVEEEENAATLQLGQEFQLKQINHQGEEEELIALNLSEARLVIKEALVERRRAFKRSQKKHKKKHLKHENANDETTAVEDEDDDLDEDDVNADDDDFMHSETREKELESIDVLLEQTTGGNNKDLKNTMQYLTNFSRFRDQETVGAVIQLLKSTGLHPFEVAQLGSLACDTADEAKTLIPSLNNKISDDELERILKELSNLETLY

In test [5] the target is T5, Rpb4 E19-22Q, TAP-tagged (S. cerevisiae) (UniProt P20433).
T5 sequence: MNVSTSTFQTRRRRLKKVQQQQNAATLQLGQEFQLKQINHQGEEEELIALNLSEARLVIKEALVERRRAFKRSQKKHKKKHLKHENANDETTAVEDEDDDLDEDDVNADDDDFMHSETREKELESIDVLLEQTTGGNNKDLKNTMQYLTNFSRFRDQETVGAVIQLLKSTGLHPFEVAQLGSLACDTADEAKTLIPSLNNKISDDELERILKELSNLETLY

B1: Ccr4, P31384 1-837 (protein)
chain: MNDPSLLGYPNVGPQQQQQQQQQQHAGLLGKGTPNALQQQLHMNQLTGIPPPGLMNNSDVHTSSNNNSRQLLDQLANGNANMLNMNMDNNNNNNNNNNNNNNNGGGSGVMMNASTAAVNSIGMVPTVGTPVNINVNASNPLLHPHLDDPSLLNNPIWKLQLHLAAVSAQSLGQPNIYARQNAMKKYLATQQAQQAQQQAQQQAQQQVPGPFGPGPQAAPPALQPTDFQQSHIAEASKSLVDCTKQALMEMADTLTDSKTAKKQQPTGDSTPSGTATNSAVSTPLTPKIELFANGKDEANQALLQHKKLSQYSIDEDDDIENRMVMPKDSKYDDQLWHALDLSNLQIFNISANIFKYDFLTRLYLNGNSLTELPAEIKNLSNLRVLDLSHNRLTSLPAELGSCFQLKYFYFFDNMVTTLPWEFGNLCNLQFLGVEGNPLEKQFLKILTEKSVTGLIFYLRDNRPEIPLPHERRFIEINTDGEPQREYDSLQQSTEHLATDLAKRTFTVLSYNTLCQHYATPKMYRYTPSWALSWDYRRNKLKEQILSYDSDLLCLQEVESKTFEEYWVPLLDKHGYTGIFHAKARAKTMHSKDSKKVDGCCIFFKRDQFKLITKDAMDFSGAWMKHKKFQRTEDYLNRAMNKDNVALFLKLQHIPSGDTIWAVTTHLHWDPKFNDVKTFQVGVLLDHLETLLKEETSHNFRQDIKKFPVLICGDFNSYINSAVYELINTGRVQIHQEGNGRDFGYMSEKNFSHNLALKSSYNCIGELPFTNFTPSFTDVIDYIWFSTHALRVRGLLGEVDPEYVSKFIGFPNDKFPSDHIPLLARFEFMKTNTGSKKV
Regarding B1, in test [1], the binding entry is given as “no binding”.

B2: Rtt103 (protein, UniProt Q05543 1-409)
chain: MPFSSEQFTTKLNTLEDSQESISSASKWLLLQYRDAPKVAEMWKEYMLRPSVNTRRKLLGLYLMNHVVQQAKGQKIIQFQDSFGKVAAEVLGRINQEFPRDLKKKLSRVVNILKERNIFSKQVVNDIERSLKTESSPVEALVLPQKLKDFAKDYEKLVKMHHNVCAMKMRFDKSSDELDPSSSVYEENFKTISKIGNMAKDIINESILKRESGIHKLQSTLDDEKRHLDEEQNMLSEIEFVLSAKDPSRLNKNVDEDNIIPTYEVGDGDDDDDDGDNDDDDDDDDDDKNYDDRSNDSNYGVTNISTTDKKNEVVEKTDSEHKNSTHNPSDNQFGMKRTHDMIGHDDANDIPEKKVHLDSKTSEDGTFNSEDGHYELDIEGHVGAQTDEGVENSGGVSSSIQDLLSKLAN
Turning to B2, the binding entry in test [2], in test [3], in test [4] and in test [5] was “binds” in each case.

B3: Myo5 (protein, UniProt Q04439 1-1219)
chain: MAILKRGARKKVHQEPAKRSANIKKATFDSSKKKEVGVSDLTLLSKISDEAINENLKKRFLNATIYTYIGHVLISVNPFRDLGIYTDAVMNEYKGKNRLEVPPHVFAIAESMYYNMKSYNENQCVIISGESGAGKTEAAKRIMQYIAAASSTHTESIGKIKDMVLATNPLLESFGCAKTLRNNNSSRHGKYLEIKFNNQFEPCAGNITNYLLEKQRVVSQIKNERNFHIFYQFTKGASDAYRQTFGVQKPEQYVYTAAAGCISAETIDDLQDYQETLKAMRVIGLGQEEQDQIFRMLAAILWIGNVSFIENEEGNAQVRDTSVTDFVAYLLQIDSQLLIKSLVERIMETNHGMKRGSVYHVPLNIVQADAVRDALAKAIYNNLFDWIVSRVNKSLQAFPGAEKSIGILDIYGFEIFEHNSFEQICINYVNEKLQQIFIQLTLKSEQETYEREKIQWTPIKYFDNKVVCDLIEARRPPGIFAAMNDSVATAHADSNAADQAFAQRLNLFTTNPHFDLRSNKFVIKHYAGDVTYDIDGITDKNKDQLQKDLVELIGTTTNTFLATIFPDTVDRESKRRPPTAGDKIIKSANDLVETLSKAQPSYIRTIKPNETKSPNDYDDRQVLHQIKYLGLQENVRIRRAGFAYRQVFEKFVERFYLLSPHCSYAGDYTWQGDTLDAVKYILQDSSIPQQEYQLGVTSVFIKTPETLFALEHMRDRYWHNMAARIQRAWRRFLQRRIDAATKIQRTIRERKEGNKYEKLRDYGTKVLGGRKERRSMSLLGYRAFMGDYLSCNESKSKGAYIKRQVSIKEKVIFSIHGEALHTKFGRSAQRLKKTFLLTPTTLYIVGQTLVQNAMTYTQDYKIDVRNIQAVSLTNLQDDWVAIKLASSGQPDPLINTYFKTELITHLKRLNDKIQIKIGSAIEYQKKPGKLHSVKCQINESAPKYGDIYKSSTISVRRGNPPNSQVHKKPRKKSSISSGYHASSSQATRRPVSIAAAQHVPTAPASRHSKKPAPPPPGMQNKAATRRSVPNPASTLTASQSNARPSPPTAATRATPAATPAAAAMGSGRQANIPPPPPPPPPSSKPKEPMFEAAYDFPGSGSPSELPLKKGDVIYITREEPSGWSLGKLLDGSKEGWVPTAYMKPHSGNNNIPTPPQNRDVPKPVLNSVQHDNTSANVIPAAAQASLGDGLANALAARANKMRLESDDEEANEDEEEDDW
Take B3: the binding result in test [4] is recorded as “no binding”; in test [5], “binds”.

These data come from paper doi:10.1101/798603.
